{
  "sequences": {"note": "Chains of the proteins cited; added tags and fusions are not shown.", "UniProt Q03164, whole entry, looked up": "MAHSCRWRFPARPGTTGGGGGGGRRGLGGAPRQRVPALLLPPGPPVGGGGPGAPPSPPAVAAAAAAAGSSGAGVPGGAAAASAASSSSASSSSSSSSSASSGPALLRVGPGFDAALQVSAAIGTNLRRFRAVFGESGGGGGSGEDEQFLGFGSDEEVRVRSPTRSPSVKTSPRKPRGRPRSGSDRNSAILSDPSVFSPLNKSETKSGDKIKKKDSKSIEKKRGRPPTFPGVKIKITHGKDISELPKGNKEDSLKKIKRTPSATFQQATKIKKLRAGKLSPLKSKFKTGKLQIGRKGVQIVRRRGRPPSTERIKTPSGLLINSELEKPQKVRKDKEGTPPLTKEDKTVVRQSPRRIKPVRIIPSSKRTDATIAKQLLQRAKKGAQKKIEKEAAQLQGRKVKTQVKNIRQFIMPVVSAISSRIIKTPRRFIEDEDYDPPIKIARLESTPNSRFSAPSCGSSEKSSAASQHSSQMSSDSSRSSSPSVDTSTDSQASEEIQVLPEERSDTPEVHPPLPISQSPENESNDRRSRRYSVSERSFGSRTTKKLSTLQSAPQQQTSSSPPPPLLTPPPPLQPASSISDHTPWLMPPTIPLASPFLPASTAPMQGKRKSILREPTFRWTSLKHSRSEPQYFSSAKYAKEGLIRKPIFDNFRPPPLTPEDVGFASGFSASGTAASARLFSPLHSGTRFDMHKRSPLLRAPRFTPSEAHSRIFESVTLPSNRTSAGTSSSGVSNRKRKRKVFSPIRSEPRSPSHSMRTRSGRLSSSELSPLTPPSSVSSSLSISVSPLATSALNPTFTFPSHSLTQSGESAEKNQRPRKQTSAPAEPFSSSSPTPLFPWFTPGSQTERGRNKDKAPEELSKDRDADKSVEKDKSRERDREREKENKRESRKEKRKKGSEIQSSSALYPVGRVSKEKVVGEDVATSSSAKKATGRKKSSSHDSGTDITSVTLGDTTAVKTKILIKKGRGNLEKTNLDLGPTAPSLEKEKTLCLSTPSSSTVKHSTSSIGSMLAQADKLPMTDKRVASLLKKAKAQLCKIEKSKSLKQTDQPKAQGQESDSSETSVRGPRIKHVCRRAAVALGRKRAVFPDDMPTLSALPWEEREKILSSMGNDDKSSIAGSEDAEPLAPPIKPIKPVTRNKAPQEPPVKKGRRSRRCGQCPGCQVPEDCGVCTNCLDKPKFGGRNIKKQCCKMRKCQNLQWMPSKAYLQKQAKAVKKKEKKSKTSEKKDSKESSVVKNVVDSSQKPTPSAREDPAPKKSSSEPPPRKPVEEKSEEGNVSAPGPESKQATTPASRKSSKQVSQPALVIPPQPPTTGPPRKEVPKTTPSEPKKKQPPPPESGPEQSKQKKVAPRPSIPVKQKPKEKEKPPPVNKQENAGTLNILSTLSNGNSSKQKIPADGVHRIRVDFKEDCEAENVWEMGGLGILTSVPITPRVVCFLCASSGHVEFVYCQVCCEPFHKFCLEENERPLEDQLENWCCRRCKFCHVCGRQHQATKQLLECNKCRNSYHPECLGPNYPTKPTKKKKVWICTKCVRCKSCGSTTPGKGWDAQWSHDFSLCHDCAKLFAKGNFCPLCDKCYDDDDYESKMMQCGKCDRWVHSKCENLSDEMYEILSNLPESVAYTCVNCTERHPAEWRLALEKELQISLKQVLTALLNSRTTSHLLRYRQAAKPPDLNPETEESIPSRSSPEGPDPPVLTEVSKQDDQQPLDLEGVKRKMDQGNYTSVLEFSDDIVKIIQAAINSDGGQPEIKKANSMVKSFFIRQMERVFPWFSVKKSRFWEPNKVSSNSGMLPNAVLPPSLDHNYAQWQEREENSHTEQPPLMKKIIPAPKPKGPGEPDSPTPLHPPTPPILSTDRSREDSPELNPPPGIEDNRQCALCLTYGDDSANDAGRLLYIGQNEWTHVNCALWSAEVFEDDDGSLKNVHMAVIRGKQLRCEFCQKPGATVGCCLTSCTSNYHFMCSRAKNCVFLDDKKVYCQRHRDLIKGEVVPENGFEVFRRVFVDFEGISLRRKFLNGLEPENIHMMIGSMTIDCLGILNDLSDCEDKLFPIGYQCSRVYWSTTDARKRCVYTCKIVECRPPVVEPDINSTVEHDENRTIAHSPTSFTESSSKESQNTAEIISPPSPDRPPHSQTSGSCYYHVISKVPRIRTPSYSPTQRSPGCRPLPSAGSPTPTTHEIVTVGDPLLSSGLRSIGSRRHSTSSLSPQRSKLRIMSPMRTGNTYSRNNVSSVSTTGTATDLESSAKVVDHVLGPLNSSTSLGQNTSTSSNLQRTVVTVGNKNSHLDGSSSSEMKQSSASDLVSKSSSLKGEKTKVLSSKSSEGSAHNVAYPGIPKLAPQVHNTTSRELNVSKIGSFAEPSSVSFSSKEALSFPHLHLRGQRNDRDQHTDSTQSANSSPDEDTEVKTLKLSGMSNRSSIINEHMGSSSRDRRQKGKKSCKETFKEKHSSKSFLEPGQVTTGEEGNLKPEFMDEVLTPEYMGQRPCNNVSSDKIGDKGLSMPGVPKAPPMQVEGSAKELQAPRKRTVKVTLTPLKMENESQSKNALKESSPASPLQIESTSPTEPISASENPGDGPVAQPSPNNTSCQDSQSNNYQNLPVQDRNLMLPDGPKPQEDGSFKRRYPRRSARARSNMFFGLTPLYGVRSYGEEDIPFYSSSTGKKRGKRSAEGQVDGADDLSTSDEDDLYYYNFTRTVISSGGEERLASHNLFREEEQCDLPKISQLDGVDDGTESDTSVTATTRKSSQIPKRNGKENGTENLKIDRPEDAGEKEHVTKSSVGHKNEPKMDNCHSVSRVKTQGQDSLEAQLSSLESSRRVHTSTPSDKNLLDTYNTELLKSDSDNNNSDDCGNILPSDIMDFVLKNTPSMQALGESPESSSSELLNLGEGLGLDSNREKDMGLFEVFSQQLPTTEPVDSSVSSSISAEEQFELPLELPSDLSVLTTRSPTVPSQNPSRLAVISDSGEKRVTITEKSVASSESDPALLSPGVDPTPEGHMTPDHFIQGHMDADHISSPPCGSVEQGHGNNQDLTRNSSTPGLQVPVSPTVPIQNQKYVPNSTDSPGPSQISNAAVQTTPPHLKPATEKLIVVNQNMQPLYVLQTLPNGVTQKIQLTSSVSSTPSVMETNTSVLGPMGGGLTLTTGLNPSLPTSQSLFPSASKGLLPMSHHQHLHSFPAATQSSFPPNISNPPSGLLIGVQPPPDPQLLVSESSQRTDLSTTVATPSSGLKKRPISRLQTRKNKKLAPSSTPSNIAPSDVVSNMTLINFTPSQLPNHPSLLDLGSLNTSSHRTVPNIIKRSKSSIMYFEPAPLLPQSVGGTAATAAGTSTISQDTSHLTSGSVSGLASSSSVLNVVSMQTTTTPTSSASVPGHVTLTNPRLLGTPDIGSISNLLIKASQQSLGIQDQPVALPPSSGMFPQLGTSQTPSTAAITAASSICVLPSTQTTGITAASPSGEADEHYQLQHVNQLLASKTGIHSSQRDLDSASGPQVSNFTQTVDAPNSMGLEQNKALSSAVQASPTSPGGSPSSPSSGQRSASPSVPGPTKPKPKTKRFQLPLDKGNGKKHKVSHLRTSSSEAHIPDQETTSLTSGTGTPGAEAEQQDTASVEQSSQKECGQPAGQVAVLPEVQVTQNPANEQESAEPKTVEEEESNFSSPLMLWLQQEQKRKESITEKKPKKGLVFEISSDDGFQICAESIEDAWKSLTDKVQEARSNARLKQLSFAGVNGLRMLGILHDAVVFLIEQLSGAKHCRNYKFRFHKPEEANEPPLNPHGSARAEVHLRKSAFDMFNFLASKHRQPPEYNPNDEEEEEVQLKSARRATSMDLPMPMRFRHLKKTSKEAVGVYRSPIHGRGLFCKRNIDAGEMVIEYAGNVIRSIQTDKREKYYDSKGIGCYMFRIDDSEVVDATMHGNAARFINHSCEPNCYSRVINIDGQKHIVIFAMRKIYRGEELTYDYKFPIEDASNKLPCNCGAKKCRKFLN"},
  "source": "PubChem BioAssay AID2662",
  "about": "(National Center for Advancing Translational Sciences (NCATS), 2010)",
  "note": "Hit rate of the full screen: of about 290,000 compounds, about 110 (0.038%) were called active. The shares of active, inactive and inconclusive entries below differ from those in the screen. Calls come from the whole dose curve; as a rule, active = well fitted inhibition curve with a large enough effect in the polarisation, with a control signal flat (not every such curve was filed as active); inconclusive = small, poorly fitted or top-dose-only effect, or effect the other way, or a change in a side signal; inactive = no such curve, though single readings can be large or run the other way; the % refers to the polarisation. Potencies beside an inconclusive call are fits to weak or partial responses and may not hold up. “Side channel” marks fits to a control or component signal instead of the main read-out. Potency is the fitted concentration of half-maximal effect.",
  "data": [
    {"target": "Histone-lysine N-methyltransferase 2A (Homo sapiens) (UniProt Q03164)", "experiment": "qHTS Fluorescence Polarization Assay for Inhibitors of MLL CXXC domain - DNA interaction", "details": "MLL-CXXC / FITC-HOXA9 DNA fluorescence polarization; activity change, negative = inhibition: at 115 µM (top of the series)", "method_in_brief": "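Steps: dispense CXXC domain solution (7 uM) → pin compounds or unlabeled HOX-A9 DNA control → 5 min ambient → add FLSN-HOX-A9 solution (50 nM) → spin → 30 min ambient → fluorescence polarization. Tris pH 7.5/NaCl/DTT/BSA buffer.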", "values": [
      {"smiles": "O=C(COc1ccc2ccccc2c1)NNC(=O)Nc1ccc(F)cc1F", "Potency": "inconclusive: 11.2 µM [quencher, side channel, single point]"},
      {"smiles": "COC(=O)CN1C(=S)N(c2ccc(Cl)cc2)C(=O)C1CC(=O)Nc1ccc(Cl)cc1", "note": "(stereo unspecified)", "Potency": "inconclusive: 28.2 µM [inhibitor, partial curve]"},
      {"smiles": "COc1cc(/C=C(\\NC(=O)c2ccccc2)C(=O)Nc2nccs2)ccc1OC(C)=O", "Potency": "inconclusive: 11.2 µM [fluorescent, side channel, single point]"},
      {"smiles": "Cc1cccc(NC(=O)CNC(=O)c2ccccc2Cl)n1", "Potency": "inconclusive: 31.6 µM [fluorescent, side channel, single point]"},
      {"smiles": "Cc1ccc(S(=O)(=O)/N=C2/C=C(C3C(=O)CC(C)(C)CC3=O)C(=O)c3ccccc32)cc1", "Potency": "inconclusive: 89.1 µM [inhibitor, single point]"},
      {"smiles": "COc1ccc(C2NC(=S)NC(C)=C2C(=O)N2CCOCC2)cc1", "note": "(stereo unspecified)", "activity change, negative = inhibition": "inactive: 1.39%"},
      {"smiles": "CC(=O)N1CCN(C(=S)NC(=O)c2c(-c3ccccc3Cl)noc2C)CC1", "Potency": "inconclusive: 11.2 µM [fluorescent, side channel, single point]"},
      {"smiles": "Cc1cccc(C)c1NC(=O)CS(=O)CC(=O)N1CCN(c2ccccc2)CC1", "note": "(stereo unspecified)", "activity change, negative = inhibition": "inactive: 2.84%"},
      {"smiles": "O=C1S/C(=C\\c2ccc(N3CCOCC3)o2)C(=O)N1c1ccccc1", "Potency": "inconclusive: 7.08 µM [fluorescent, side channel, full curve]"},
      {"smiles": "COc1ccc2c(c1)c1nc3ccccc3nc1n2Cc1ccc(OC)c(OC)c1", "Potency": "inconclusive: 70.8 µM [inhibitor, single point]"},
      {"smiles": "Cc1ccc(CCC(=O)Nc2nccs2)o1", "activity change, negative = inhibition": "inactive: 5.17%"},
      {"smiles": "CC(=O)Nc1cc(OC(C)=O)c2nonc2c1OC(C)=O", "Potency": "inconclusive: 15.8 µM [inhibitor, partial curve]"},
      {"smiles": "COC(=O)COc1ccc(NC(=O)Cn2nc(-c3ccccc3)c3ccccc3c2=O)cc1", "activity change, negative = inhibition": "inactive: 4.75%"},
      {"smiles": "O=C(c1cc(-c2ccc(Cl)cc2)n(-c2ccc(Cl)cc2)n1)N1CCOCC1", "activity change, negative = inhibition": "inactive: 1.62%"},
      {"smiles": "CSc1nc(N(C)NC(=O)c2cccc(C)c2)c2ccccc2n1", "Potency": "inconclusive: 10 µM [inhibitor, single point]"},
      {"smiles": "CN(C)c1ccc(/C=N/N(CCC(=O)NC(C)(C)C)C2=NS(=O)(=O)c3ccccc32)cc1", "Potency": "inconclusive: 44.7 µM [fluorescent, side channel, single point]"},
      {"smiles": "CCN(CC)CCCN(C(=O)c1cccc(C)c1)c1nc(-c2ccc(OC)cc2)cs1", "Potency": "inconclusive: 17.8 µM [quencher, side channel, partial curve]"},
      {"smiles": "O=C(c1cccnc1)C1CCCN(Cc2nc(Cc3ccccc3F)no2)C1", "note": "(stereo unspecified)", "Potency": "inconclusive: 3.16 µM [inhibitor, full curve, poor fit]"},
      {"smiles": "O=C(N/N=C/c1coc2ccc(Cl)cc2c1=O)c1cc(O)cc(O)c1", "Potency": "inconclusive: 20 µM [fluorescent, side channel, partial curve, poor fit]"},
      {"smiles": "COc1cc2c(O)c3c(c(-c4ccc5c(c4)OCO5)c2cc1OC)C(=O)OC3", "activity change, negative = inhibition": "inactive: 4.69%"},
      {"smiles": "CCCn1nc([N+](=O)[O-])c(C(C#N)c2nc3ccccc3o2)c(Cl)c1=O", "note": "(stereo unspecified)", "Potency": "inconclusive: 7.08 µM [inhibitor, full curve, poor fit]"},
      {"smiles": "Cc1cc2n(n1)C(c1ccccc1)Nc1ccccc1-2", "note": "(stereo unspecified)", "activity change, negative = inhibition": "inactive: -0.561%"},
      {"smiles": "CCC(C)(C)C(=O)Nc1cc([N+](=O)[O-])ccc1F", "activity change, negative = inhibition": "inactive: 18.6%"},
      {"smiles": "CCC1CCCCN1CCCNC(=O)c1cc2c(Cl)nc3ccccc3c2s1", "note": "(stereo unspecified)", "Potency": "inconclusive: 50.1 µM [inhibitor, single point]"},
      {"smiles": "Cc1nc2ccc(NC(=O)c3cccs3)cc2s1", "Potency": "inconclusive: 14.1 µM [fluorescent, side channel, single point]"},
      {"smiles": "CCCCOc1ccc(C(=O)CCN2CCOCC2)cc1", "Potency": "inconclusive: 39.8 µM [fluorescent, side channel, partial curve]"},
      {"smiles": "N#CC1=C(SCC(N)=O)NC2=C(C(=O)c3ccccc32)C1c1ccc(Cl)cc1", "note": "(stereo unspecified)", "Potency": "inconclusive: 7.94 µM [quencher, side channel, full curve]"},
      {"smiles": "CCN1CCN(C(=O)C(=O)c2cn(CC(=O)N(CC)CC)c3ccccc23)CC1", "Potency": "inconclusive: 14.1 µM [fluorescent, side channel, single point]"},
      {"smiles": "CCCn1nc(NC(=O)c2ccco2)c2cc3ccc(C)cc3nc21", "activity change, negative = inhibition": "inactive: -3.03%"},
      {"smiles": "CCOC(=O)c1c[nH]c2nc(C)ccc2c1=O", "Potency": "inconclusive: 35.5 µM [fluorescent, side channel, single point]"},
      {"smiles": "NC(=O)c1c(NC(=O)c2ccccc2)sc2c1CCC2", "activity change, negative = inhibition": "inactive: 5.41%"},
      {"smiles": "CCOc1ccc(-c2nc(C#N)c(NCC3CCCO3)o2)cc1", "note": "(stereo unspecified)", "activity change, negative = inhibition": "inactive: 5.61%"},
      {"smiles": "O=C1C(CSCc2ccccc2)NC(=S)N1c1ccccc1", "note": "(stereo unspecified)", "activity change, negative = inhibition": "inactive: 19.8%"},
      {"smiles": "CCOC(=O)c1ccc(S(=O)(=O)NCC(c2ccc(N(C)C)cc2)c2c[nH]c3ccccc23)cc1", "note": "(stereo unspecified)", "Potency": "inconclusive: 70.8 µM [fluorescent, side channel, single point]"},
      {"smiles": "COc1ccc(CNCC2COc3ccccc3O2)cc1", "note": "(stereo unspecified)", "Potency": "inconclusive: 70.8 µM [inhibitor, single point]"},
      {"smiles": "CC1(C)OC(c2ccccc2)=C/C(=C/C=N/NC(=O)c2ccncc2)O1", "Potency": "inconclusive: 31.6 µM [quencher, side channel, single point]"},
      {"smiles": "On1c(-c2ccc(Cl)cc2)nc2ccccc21", "Potency": "inconclusive: 79.4 µM [fluorescent, side channel, partial curve]"},
      {"smiles": "CC1CCC(NC(=O)c2nn(C)c3c2CSc2ccccc2-3)CC1", "note": "(stereo unspecified)", "Potency": "inconclusive: 35.5 µM [quencher, side channel, single point]"},
      {"smiles": "CCC1=NN2C(=N)/C(=C\\c3ccc(OCCOc4ccccc4)c(OC)c3)C(=O)N=C2S1", "Potency": "inconclusive: 7.08 µM [inhibitor, full curve, poor fit]"},
      {"smiles": "O=c1[nH]c2sc3c(c2c2nncn12)CCCC3", "activity change, negative = inhibition": "inactive: -16.3%"},
      {"smiles": "O=C(NCCCN1CCOCC1)C(=O)NCc1ccco1", "Potency": "inconclusive: 1.12 µM [inhibitor, partial curve, poor fit]"}
    ]}
  ]
}
